Source: PubChem BioAssay AID1259254 (NCATS, 2017)

- Assay: 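Genome-wide screen for genes that prevent DNA re-replication in cancer cells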 (primary screen)
- System: human HCT116 colorectal cancer cells
- Reagent: single siRNA against human genes
- Timing: 3 days
- Measurement: 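Imaged Hoechst DNA stain sorts each cell into a cycle phase by DNA amount; per plate, G2 fraction set to 0% for non-targeting and 100% for GMNN siRNA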
- Scale: G2 robust z-score and G2 cells, % of GMNN control: higher = more G2 cells, more excess DNA replication; raw share of cells in G2: higher = larger share of cells with G2 DNA content
- Active means: 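An siRNA counts as active if its G2 robust z-score lies at least 5 MADs above the screen median; here such calls match roughly 38% of GMNN control or more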
The whole screen tested about 59,000 reagents; shown is a part drawn at random. About 1,550 of them (2.6%) count as active. 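G2 share is only a proxy for re-replication; each gene was hit by three separate siRNAs, and active genes were retested.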 Raw values are not corrected between plates. Unmarked entries are inactive. The numbers tell different reagents against one gene apart. No sequences are given here. Not stated in the record: the amount of reagent.

gene	siRNA no.	G2 robust z-score	G2 cells, % of GMNN control	raw share of cells in G2 (%)
COPRS (coordinator of PRMT5 and differentiation stimulator)	1	-1.05	-4.39	2.84
COPRS (coordinator of PRMT5 and differentiation stimulator)	2	0.308	5.13	6.27
COPRS (coordinator of PRMT5 and differentiation stimulator)	3	4.69	36	14.6
PRPF38B (pre-mRNA processing factor 38B)	1	-0.229	1.36	5.05
PRPF38B (pre-mRNA processing factor 38B)	2	-0.266	1.1	4.59
PRPF38B (pre-mRNA processing factor 38B)	3	-0.874	-3.18	2.12
LHX3 (LIM homeobox 3)	1	1.01	10.1	9.85
LHX3 (LIM homeobox 3)	2	0.196	4.35	5.91
LHX3 (LIM homeobox 3)	3	-0.551	-0.91	3.92
CLEC12B (C-type lectin domain family 12 member B)	1	1.09	10.6	7.42
CLEC12B (C-type lectin domain family 12 member B)	2	0.656	7.58	6.7
CLEC12B (C-type lectin domain family 12 member B)	3	-0.326	0.675	4.92
GRK3 (G protein-coupled receptor kinase 3)	1	-0.834	-2.9	4.65
GRK3 (G protein-coupled receptor kinase 3)	2	0.231	4.59	6.96
GRK3 (G protein-coupled receptor kinase 3)	3	-0.47	-0.337	3.91
IVD (isovaleryl-CoA dehydrogenase)	1	-1.33	-6.39	1.86
IVD (isovaleryl-CoA dehydrogenase)	2	1.76	15.3	10.6
IVD (isovaleryl-CoA dehydrogenase)	3	0.488	6.4	8.12
BCL3 (BCL3 transcription coactivator)	1	2.86	23.1	16.1
BCL3 (BCL3 transcription coactivator)	2	1.04	10.3	7.85
BCL3 (BCL3 transcription coactivator)	3	1.33	12.3	8.35
LOC389405 (retired record)	1	-0.934	-3.61	2.54
LOC389405 (retired record)	2	1.43	13	9.08
LOC389405 (retired record)	3	-0.35	0.507	4.85

Targets listed so far whose target name starts with P or p:
gene	siRNA no.	G2 robust z-score	G2 cells, % of GMNN control	raw share of cells in G2 (%)
PRPF38B (pre-mRNA processing factor 38B)	1	-0.229	1.36	5.05
PRPF38B (pre-mRNA processing factor 38B)	2	-0.266	1.1	4.59
PRPF38B (pre-mRNA processing factor 38B)	3	-0.874	-3.18	2.12

The results go on:
gene	siRNA no.	G2 robust z-score	G2 cells, % of GMNN control	raw share of cells in G2 (%)
TMEM67 (transmembrane protein 67)	1	-0.662	-1.69	3.37
TMEM67 (transmembrane protein 67)	2	-0.273	1.04	3.33
TMEM67 (transmembrane protein 67)	3	1.44	13.1	7.07
YJU2B (YJU2 splicing factor homolog B)	1	-0.285	0.964	2.7
YJU2B (YJU2 splicing factor homolog B)	2	-0.289	0.932	4.42
YJU2B (YJU2 splicing factor homolog B)	3	-0.278	1.01	3.76
ZSCAN22 (zinc finger and SCAN domain containing 22)	1	1.85	16	8.59
ZSCAN22 (zinc finger and SCAN domain containing 22)	2	2.21	18.5	9.58
ZSCAN22 (zinc finger and SCAN domain containing 22)	3	5.08 (active)	38.7	17.1
KIR3DX1	1	2.69	21.9	13.4
KIR3DX1	2	-0.95	-3.72	1.84
KIR3DX1	3	-0.934	-3.61	1.78
SMDT1 (single-pass membrane protein with aspartate rich tail 1)	1	-0.529	-0.755	2.76
SMDT1 (single-pass membrane protein with aspartate rich tail 1)	2	0.0119	3.05	3.89
SMDT1 (single-pass membrane protein with aspartate rich tail 1)	3	4.03	31.3	17.4
DDAH2 (DDAH family member 2, ADMA-independent)	1	-0.876	-3.2	5.09
DDAH2 (DDAH family member 2, ADMA-independent)	2	0.739	8.17	6.66
DDAH2 (DDAH family member 2, ADMA-independent)	3	-0.195	1.6	4.69
EIF3C (eukaryotic translation initiation factor 3 subunit C)	1	-0.539	-0.827	4.16
EIF3C (eukaryotic translation initiation factor 3 subunit C)	2	4.3	33.2	16.9
EIF3C (eukaryotic translation initiation factor 3 subunit C)	3	6.5 (active)	48.7	22.2
FITM1 (fat storage inducing transmembrane protein 1)	1	0.39	5.71	5.65
FITM1 (fat storage inducing transmembrane protein 1)	2	0.949	9.64	6.19
FITM1 (fat storage inducing transmembrane protein 1)	3	-0.436	-0.103	2.73
PLEK (pleckstrin)	1	1.32	12.3	10.2
PLEK (pleckstrin)	2	7.13 (active)	53.1	25.2
PLEK (pleckstrin)	3	-0.5	-0.553	3.15
RHCG (Rh family C glycoprotein)	1	0.799	8.59	9.85
RHCG (Rh family C glycoprotein)	2	-0.0434	2.66	5.23
RHCG (Rh family C glycoprotein)	3	0.0192	3.1	4.99
ATAD2B (ATPase family AAA domain containing 2B)	1	-0.905	-3.4	2.5
ATAD2B (ATPase family AAA domain containing 2B)	2	-1.18	-5.33	3.54
ATAD2B (ATPase family AAA domain containing 2B)	3	-0.66	-1.68	3.62
LPAR4 (lysophosphatidic acid receptor 4)	1	1.46	13.3	10.6
LPAR4 (lysophosphatidic acid receptor 4)	2	-0.902	-3.38	3.34
LPAR4 (lysophosphatidic acid receptor 4)	3	0.113	3.76	4.42
CMPK1 (cytidine/uridine monophosphate kinase 1)	1	0.645	7.51	7.92
CMPK1 (cytidine/uridine monophosphate kinase 1)	2	-0.514	-0.651	4.95
CMPK1 (cytidine/uridine monophosphate kinase 1)	3	3.69	28.9	12.9
COL8A1 (collagen type VIII alpha 1 chain)	1	-0.385	0.26	5.05
COL8A1 (collagen type VIII alpha 1 chain)	2	0.508	6.54	7.38
COL8A1 (collagen type VIII alpha 1 chain)	3	0.167	4.14	5.52
TIMM17A (translocase of inner mitochondrial membrane 17A)	1	0.215	4.48	7.36
TIMM17A (translocase of inner mitochondrial membrane 17A)	2	2.48	20.5	12.5
TIMM17A (translocase of inner mitochondrial membrane 17A)	3	-0.0388	2.69	4.39
